Experimental findings from US20150004174A1 are described below.

These are yes or no findings as the source states them, for the method shown. Binding calls can cover weak binding; strength is not graded here.

This assay addresses cynomolgus monkey PCSK9, V5-6xHis tagged (cynomolgus monkey). The experiment in a line: BIAcore solution equilibrium assay; 0.3, 1 and 3 nM cyno PCSK9 mixed with 21B12.1 in solution, free PCSK9 measured on immobilized 21B12. For orientation: SPR reads the build-up and loss of mass on a sensor chip optically.

B1: 21B12 human IgG4 (from hybridoma) (antibody, V domains shown)
VH: QVQLVQSGAEVKKPGASVKVSCKASGYTLTSYGISWVRQAPGQGLEWMGWVSFYNGNTNYAQKLQGRGTMTTDPSTSTAYMELRSLRSDDTAVYYCARGYGMDVWGQGTTVTVSS
VL: QSALTQPASVSGSPGQSITISCTGTSSDVGGYNSVSWYQQHPGKAPKLMIYEVSNRPSGVSNRFSGSKSGNTASLTISGLQAEDEADYYCNSYTSTSMVFGGGTKLTVLQ
Regarding B1, the binding result was “binds”.
